These are yes or no findings as the source states them, for the method shown. Binding seen in cells or lysates may run through a third protein. Some entries that bind do so weakly or less than the wild type.
Biological target: WW domain-containing E3 ubiquitin protein ligase 2 (WWP2), endogenous (human (endogenous in HUVECs)) (UniProt O00308)
Assay: co-IP; endogenous proteins in HUVEC lysates (50 mM Tris pH 7.8, 137 mM NaCl, 1 mM EDTA, 1% NP-40, 10% glycerol); anti-WWP2 or anti-DDX3X antibody 3 h, then protein A/G agarose 12 h at 4 °C; western blot; cells with or without HG/PA for 48 h

Amino acid sequences for entries named in this document (tags omitted).
UniProt O00308: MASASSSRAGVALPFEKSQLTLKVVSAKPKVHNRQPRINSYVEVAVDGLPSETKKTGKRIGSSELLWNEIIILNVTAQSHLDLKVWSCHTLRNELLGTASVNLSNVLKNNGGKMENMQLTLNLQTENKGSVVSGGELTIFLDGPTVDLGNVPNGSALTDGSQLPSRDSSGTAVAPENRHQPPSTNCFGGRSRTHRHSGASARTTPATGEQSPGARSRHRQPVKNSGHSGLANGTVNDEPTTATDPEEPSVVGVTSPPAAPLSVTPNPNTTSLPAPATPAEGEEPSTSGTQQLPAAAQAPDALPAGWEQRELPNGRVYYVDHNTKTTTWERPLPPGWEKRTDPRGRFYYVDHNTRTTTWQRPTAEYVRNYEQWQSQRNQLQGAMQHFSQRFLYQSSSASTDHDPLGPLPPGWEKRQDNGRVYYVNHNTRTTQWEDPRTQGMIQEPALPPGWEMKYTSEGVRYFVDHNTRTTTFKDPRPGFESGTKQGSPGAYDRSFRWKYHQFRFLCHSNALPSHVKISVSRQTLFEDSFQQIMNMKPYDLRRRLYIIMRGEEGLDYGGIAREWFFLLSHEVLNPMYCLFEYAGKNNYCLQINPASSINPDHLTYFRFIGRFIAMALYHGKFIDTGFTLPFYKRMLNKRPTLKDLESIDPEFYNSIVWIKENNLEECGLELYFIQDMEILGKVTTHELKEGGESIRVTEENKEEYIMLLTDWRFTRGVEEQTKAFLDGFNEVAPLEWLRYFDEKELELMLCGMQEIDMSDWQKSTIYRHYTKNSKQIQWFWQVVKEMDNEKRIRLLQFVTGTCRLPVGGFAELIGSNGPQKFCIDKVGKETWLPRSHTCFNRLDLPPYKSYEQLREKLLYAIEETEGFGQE
UniProt O00571: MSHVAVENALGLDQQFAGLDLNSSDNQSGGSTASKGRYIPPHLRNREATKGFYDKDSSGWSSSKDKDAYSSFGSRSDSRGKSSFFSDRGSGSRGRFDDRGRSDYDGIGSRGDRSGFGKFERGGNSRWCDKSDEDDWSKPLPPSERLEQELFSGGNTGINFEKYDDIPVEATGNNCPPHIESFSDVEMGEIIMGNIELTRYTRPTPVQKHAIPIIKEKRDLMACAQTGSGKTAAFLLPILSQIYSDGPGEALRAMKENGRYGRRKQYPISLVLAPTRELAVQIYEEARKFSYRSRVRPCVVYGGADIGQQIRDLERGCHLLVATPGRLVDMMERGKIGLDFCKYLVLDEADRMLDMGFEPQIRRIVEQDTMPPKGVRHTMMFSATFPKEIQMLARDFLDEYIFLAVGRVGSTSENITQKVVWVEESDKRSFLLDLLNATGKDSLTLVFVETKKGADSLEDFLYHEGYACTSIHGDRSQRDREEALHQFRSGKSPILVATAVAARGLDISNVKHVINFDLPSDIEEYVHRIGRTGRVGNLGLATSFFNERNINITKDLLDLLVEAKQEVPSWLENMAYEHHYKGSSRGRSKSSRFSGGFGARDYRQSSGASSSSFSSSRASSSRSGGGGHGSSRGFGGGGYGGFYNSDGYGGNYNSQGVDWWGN

Substance: DEAD-box helicase 3 X-linked (DDX3X), endogenous (from UniProt O00571 1-662)
- binding: binds
